Experimental findings from publication PMC10460448 are described below.

By UniProt entry, the sequences of proteins in these tests, tags left out.
UniProt Q05421: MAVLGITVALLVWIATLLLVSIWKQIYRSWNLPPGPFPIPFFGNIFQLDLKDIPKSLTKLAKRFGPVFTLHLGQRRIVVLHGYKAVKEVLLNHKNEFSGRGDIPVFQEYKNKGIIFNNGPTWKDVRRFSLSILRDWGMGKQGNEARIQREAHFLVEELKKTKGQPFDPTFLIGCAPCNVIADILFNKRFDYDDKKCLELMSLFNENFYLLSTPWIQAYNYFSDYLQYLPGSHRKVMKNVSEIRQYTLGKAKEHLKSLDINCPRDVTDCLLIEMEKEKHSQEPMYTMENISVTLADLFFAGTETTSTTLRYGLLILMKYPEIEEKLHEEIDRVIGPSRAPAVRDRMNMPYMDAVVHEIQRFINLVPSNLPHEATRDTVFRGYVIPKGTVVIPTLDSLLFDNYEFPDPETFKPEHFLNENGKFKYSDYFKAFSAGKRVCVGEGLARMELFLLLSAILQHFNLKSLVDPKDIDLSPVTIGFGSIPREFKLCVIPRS
UniProt Q9JMA1: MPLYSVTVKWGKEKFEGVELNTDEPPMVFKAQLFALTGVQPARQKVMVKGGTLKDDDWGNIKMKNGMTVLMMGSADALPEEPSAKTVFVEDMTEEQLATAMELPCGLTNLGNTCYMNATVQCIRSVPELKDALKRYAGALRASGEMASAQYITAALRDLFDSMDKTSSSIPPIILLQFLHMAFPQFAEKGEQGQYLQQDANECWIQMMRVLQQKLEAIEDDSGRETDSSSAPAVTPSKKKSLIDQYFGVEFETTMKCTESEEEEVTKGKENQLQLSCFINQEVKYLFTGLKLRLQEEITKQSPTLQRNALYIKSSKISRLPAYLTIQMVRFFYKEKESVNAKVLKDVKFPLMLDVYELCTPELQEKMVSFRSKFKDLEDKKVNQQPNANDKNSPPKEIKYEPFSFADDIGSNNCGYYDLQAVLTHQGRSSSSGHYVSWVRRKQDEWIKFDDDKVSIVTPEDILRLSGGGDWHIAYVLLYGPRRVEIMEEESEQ

These are yes or no findings as the source states them, for the method shown. Binding seen in cells or lysates may run through a third protein. Some entries that bind do so weakly or less than the wild type.

Test [1] addresses CYP2E1, tagged, expressed in AML12 cells (exogenous IP) (mouse) (UniProt Q05421). Briefly: co-IP; exogenous IP in AML12 cells (Fig. S5A-B).
Test [2] concerns the target Heat shock protein 90 alpha family class A member 1 (HSP90AA1), tagged, expressed in HEK-293T cells (mouse) (UniProt P07901). Briefly: co-IP; exogenous co-IP; HEK-293T cells cotransfected with tagged plasmids; lysis buffer 150 mM NaCl, 10 mM HEPES pH 7.4, 1% NP-40; lysates incubated overnight at 4 °C with Flag or Myc affinity agarose; washed six times, eluted with glycine, immunoblot.

The target of test [3] is HSP90AA1, endogenous in AML12 cells (mouse (endogenous in AML12)) (UniProt P07901). Briefly: co-IP; endogenous co-IP in AML12 cells treated with PO for 12 h; anti-USP14 or anti-HSP90AA1 rabbit antibody with protein G agarose; IgG as control.

Take “USP14, tagged, expressed in AML12 cells (exogenous IP) (from UniProt Q9JMA1 1-493) (enzyme)”: the binding result in test [1] is reported as “no binding”.
In the case of “Ubiquitin-specific proteinase 14 (USP14), full length, tagged, expressed in HEK-293T cells (from UniProt Q9JMA1 1-493) (enzyme)”, the binding result in test [2] is “binds”.
In the case of “USP14, endogenous in AML12 cells (from UniProt Q9JMA1 1-493) (enzyme)”, in test [3], the binding result is recorded as “binds”.
